Results from PMC12425391.
No constants are given. Whether binding was seen depends on the method and setting. In cells and extracts the contact can be indirect. Some entries that bind do so weakly or less than the wild type.

Amino acid sequences for entries named in this document (tags omitted).
UniProt P42224: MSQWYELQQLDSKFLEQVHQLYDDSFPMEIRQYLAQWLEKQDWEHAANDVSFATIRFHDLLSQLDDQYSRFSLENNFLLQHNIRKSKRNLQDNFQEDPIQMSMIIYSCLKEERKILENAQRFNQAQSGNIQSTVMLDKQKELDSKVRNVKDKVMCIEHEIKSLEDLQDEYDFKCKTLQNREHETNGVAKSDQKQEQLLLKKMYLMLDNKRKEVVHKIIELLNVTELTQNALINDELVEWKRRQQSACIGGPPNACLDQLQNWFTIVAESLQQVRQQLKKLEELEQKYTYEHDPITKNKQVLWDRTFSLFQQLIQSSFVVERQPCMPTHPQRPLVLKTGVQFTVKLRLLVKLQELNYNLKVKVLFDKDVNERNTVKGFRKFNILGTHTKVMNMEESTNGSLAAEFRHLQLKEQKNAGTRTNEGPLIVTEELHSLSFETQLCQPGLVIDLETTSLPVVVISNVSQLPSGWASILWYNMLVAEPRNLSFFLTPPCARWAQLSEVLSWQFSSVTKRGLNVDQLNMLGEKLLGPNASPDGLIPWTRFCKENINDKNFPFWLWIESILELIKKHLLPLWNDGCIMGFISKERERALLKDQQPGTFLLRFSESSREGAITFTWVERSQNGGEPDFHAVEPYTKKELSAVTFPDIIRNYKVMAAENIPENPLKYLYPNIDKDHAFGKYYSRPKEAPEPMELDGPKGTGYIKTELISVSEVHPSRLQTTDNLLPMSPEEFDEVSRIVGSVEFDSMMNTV
UniProt O00471: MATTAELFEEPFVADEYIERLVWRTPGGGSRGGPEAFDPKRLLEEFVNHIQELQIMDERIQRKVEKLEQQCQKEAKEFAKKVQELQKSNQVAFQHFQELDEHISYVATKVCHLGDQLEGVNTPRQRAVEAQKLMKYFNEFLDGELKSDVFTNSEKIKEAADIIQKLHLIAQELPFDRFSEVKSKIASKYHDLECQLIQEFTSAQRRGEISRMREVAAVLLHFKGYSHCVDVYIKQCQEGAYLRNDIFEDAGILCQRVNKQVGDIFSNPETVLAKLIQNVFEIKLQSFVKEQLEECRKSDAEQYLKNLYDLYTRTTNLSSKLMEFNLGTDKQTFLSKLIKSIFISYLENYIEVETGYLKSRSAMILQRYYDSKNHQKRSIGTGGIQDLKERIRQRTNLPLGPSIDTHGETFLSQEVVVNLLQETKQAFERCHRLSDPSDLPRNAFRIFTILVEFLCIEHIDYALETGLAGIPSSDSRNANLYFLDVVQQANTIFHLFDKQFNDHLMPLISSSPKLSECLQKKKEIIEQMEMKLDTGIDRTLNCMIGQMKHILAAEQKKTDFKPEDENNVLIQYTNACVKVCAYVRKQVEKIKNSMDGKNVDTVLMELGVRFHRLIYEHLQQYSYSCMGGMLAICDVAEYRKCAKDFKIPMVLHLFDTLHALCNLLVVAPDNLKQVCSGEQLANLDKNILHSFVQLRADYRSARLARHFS
UniProt Q9UNE7: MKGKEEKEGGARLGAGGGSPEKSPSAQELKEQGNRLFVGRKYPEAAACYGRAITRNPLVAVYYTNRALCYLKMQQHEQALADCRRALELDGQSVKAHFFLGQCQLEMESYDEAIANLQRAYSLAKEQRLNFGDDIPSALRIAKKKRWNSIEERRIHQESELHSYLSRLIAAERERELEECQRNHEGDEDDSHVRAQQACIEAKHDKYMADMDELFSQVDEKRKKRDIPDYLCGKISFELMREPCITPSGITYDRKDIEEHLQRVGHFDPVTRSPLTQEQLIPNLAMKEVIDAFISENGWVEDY
UniProt Q3TPX4: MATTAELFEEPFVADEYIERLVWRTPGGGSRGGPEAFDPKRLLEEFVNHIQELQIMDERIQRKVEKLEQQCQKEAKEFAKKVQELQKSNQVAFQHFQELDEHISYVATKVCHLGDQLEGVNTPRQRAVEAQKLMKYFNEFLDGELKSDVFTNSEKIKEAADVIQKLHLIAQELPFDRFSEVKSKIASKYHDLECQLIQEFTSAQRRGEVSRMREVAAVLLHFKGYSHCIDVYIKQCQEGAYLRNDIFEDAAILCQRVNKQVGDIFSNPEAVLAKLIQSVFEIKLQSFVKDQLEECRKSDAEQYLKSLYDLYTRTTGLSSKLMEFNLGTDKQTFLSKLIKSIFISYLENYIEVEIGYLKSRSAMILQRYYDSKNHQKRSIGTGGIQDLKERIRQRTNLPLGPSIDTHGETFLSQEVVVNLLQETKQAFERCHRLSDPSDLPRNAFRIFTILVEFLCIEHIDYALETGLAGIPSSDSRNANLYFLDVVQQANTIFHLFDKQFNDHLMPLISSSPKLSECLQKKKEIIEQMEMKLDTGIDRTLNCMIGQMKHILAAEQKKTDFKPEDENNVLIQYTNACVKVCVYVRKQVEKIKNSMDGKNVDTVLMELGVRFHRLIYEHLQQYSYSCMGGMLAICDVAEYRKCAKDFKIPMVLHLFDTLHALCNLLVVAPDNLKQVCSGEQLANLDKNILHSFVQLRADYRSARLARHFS
UniProt Q9WUD1: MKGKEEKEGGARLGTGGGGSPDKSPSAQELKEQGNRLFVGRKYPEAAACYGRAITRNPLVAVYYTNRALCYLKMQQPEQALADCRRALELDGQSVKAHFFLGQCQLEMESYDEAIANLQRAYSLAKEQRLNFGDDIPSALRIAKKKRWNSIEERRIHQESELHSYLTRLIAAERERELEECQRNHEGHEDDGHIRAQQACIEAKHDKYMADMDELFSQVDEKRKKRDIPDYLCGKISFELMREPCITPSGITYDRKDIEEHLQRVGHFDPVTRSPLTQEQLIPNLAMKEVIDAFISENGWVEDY

Assays:
HA-tagged STAT1 = HA-tagged STAT1 (UniProt P42224); assay: co-IP; HEK293T cells co-transfected with the tagged plasmids, whole-cell extracts 48 h after transfection; IP with anti-HA or anti-Flag antibody on Protein G Sepharose beads at 4°C, washed 3x with lysis buffer; immunoblot
HA-tagged Sec10 = HA-tagged Sec10 (UniProt O00471); assay: as above
Flag-tagged STAT1 = Flag-tagged STAT1 (UniProt P42224); assay: as above
Flag-tagged STUB1 = Flag-tagged STUB1 (UniProt Q9UNE7); assay: as above
[1] = molecular target: endogenous STAT1 (HeLa) (human (endogenous in HeLa)) (UniProt P42224); assay: co-IP
[2] = molecular target: T1, endogenous STAT1 (mouse PMs or BMDMs) (mouse (endogenous in PMs or BMDMs)) (UniProt P42225); assay: co-IP
T1 sequence: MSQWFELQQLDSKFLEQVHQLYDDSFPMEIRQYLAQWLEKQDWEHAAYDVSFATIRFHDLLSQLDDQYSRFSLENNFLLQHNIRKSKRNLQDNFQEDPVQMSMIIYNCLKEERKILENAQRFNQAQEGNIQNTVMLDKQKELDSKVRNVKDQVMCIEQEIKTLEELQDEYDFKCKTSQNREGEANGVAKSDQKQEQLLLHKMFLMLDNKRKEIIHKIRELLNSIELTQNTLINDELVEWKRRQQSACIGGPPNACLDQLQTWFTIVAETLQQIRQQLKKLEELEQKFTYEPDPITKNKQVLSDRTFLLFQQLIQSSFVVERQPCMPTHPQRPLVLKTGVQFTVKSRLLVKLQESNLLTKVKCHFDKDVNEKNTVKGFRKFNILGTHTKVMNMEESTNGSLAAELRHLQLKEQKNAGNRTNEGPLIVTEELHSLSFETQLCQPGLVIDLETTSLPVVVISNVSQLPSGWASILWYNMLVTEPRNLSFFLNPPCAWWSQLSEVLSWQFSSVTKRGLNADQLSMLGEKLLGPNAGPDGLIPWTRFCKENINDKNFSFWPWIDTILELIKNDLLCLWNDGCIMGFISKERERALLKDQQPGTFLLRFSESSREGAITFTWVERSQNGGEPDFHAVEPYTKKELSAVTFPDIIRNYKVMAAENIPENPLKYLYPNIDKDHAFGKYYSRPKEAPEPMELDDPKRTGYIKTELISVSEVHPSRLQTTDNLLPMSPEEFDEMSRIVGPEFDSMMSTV

[3] = molecular target: endogenous Sec10 (mouse PMs or BMDMs) (mouse (endogenous in PMs or BMDMs)) (UniProt Q3TPX4); assay: co-IP

“Flag-tagged STUB1 (from UniProt Q9UNE7 1-303) (enzyme)” was tested, and the binding (HA-tagged STAT1) was “binds” and the binding (HA-tagged Sec10) was “binds”.
With “HA-tagged Sec10 (from UniProt O00471 1-708)” the binding (Flag-tagged STAT1) was “binds” and the binding (Flag-tagged STUB1) was “binds”.
With “endogenous STUB1 (HeLa) (from UniProt Q9UNE7 1-303) (enzyme)” the binding [1] was “binds”.
In the case of “endogenous STUB1 (mouse PMs or BMDMs) (from UniProt Q9WUD1 1-304) (enzyme)”, the binding [2] was “binds” and the binding [3] was “binds”.
